# According to the supplement of paper PMC8728848:
# The list shows a part of the results.
# Legend:
# Assay in all cases: glycan array binding signal (z-score within array); higher = stronger binding
# Conditions in all cases: glycan notation: IUPAC condensed, linker removed
# GalNAc3S(b1-4)GlcNAc3S = biological target: GalNAc3S(b1-4)GlcNAc3S
# Summary of the method: (§1)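 The binding signal is a Z-score computed within each array. Data were drawn from 3228 arrays in the Consortium for Functional Glycomics database, restricted to those with a known protein sequence. Scores were averaged over arrays of the same protein sequence at different concentrations or buffers, and over linkers, and negative values can be taken as non-binding.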
# [1] = biological target: GalNAc3S(b1-4)[Fuc(a1-3)]GlcNAc
# Summary of the method: as §1
# GalNAc4S6S(b1-4)GlcNAc = biological target: GalNAc4S6S(b1-4)GlcNAc
# Summary of the method: as §1
# GalNAc6S(b1-4)GlcNAc = biological target: GalNAc6S(b1-4)GlcNAc
# Summary of the method: as §1
# Glc(a1-4)Glc = biological target: Glc(a1-4)Glc
# Summary of the method: as §1
# [2] = biological target: Glc(a1-4)Glc(a1-4)Glc(a1-4)Glc
# Summary of the method: as §1
# Glc(a1-6)Glc(a1-6)Glc = biological target: Glc(a1-6)Glc(a1-6)Glc
# Summary of the method: as §1
# [3] = biological target: Glc(a1-6)Glc(a1-6)Glc(a1-6)Glc
# Summary of the method: as §1
# Glc(b1-4)Glc = biological target: Glc(b1-4)Glc
# Summary of the method: as §1
# Glc(b1-6)Glc = biological target: Glc(b1-6)Glc
# Summary of the method: as §1
# GlcA(b1-3)Gal = biological target: GlcA(b1-3)Gal
# Summary of the method: as §1
# GlcA(b1-3)GlcNAc = biological target: GlcA(b1-3)GlcNAc
# Summary of the method: as §1
# GlcA(b1-6)Gal = biological target: GlcA(b1-6)Gal
# Summary of the method: as §1
# [4] = biological target: GlcA3S(b1-3)Gal(b1-4)GlcNAc(b1-2)Man
# Summary of the method: as §1
# [5] = biological target: GlcA3S(b1-3)Gal(b1-4)GlcNAc(b1-3)Gal(b1-4)Glc
# Summary of the method: as §1
# [6] = biological target: GlcNAc(a1-3)Gal(b1-4)GlcNAc
# Summary of the method: as §1
# [7] = biological target: GlcNAc(a1-4)Gal(b1-3)GlcNAc
# Summary of the method: as §1
# [8] = biological target: GlcNAc(a1-4)Gal(b1-4)GalNAc
# Summary of the method: as §1
# [9] = biological target: GlcNAc(a1-4)Gal(b1-4)GlcNAc
# Summary of the method: as §1
# [10] = biological target: GlcNAc(a1-4)Gal(b1-4)GlcNAc(b1-3)Gal(b1-4)Glc
# Summary of the method: as §1
# [11] = biological target: GlcNAc(a1-4)Gal(b1-4)GlcNAc(b1-3)Gal(b1-4)GlcNAc
# Summary of the method: as §1
# [12] = biological target: GlcNAc(a1-4)Gal(b1-4)GlcNAc(b1-3)Gal(b1-4)GlcNAc(b1-3)Gal(b1-4)GlcNAc
# Summary of the method: as §1
# [13] = biological target: GlcNAc(a1-4)Gal(b1-4)GlcNAc(b1-3)Gal(b1-4)[Fuc(a1-3)]GlcNAc(b1-3)Gal(b1-4)[Fuc(a1-3)]GlcNAc
# Summary of the method: as §1
# [14] = biological target: GlcNAc(a1-6)Gal(b1-4)GlcNAc
# Summary of the method: as §1
# [15] = biological target: GlcNAc(b1-2)Gal(b1-3)GalNAc
# Summary of the method: as §1
# [16] = biological target: GlcNAc(b1-2)Man(a1-3)[GlcNAc(b1-2)Man(a1-6)]Man(b1-4)GlcNAc(b1-4)GlcNAc
# Summary of the method: as §1
# [17] = biological target: GlcNAc(b1-2)Man(a1-3)[GlcNAc(b1-2)Man(a1-6)]Man(b1-4)GlcNAc(b1-4)[Fuc(a1-6)]GlcNAc
# Summary of the method: as §1
# [18] = biological target: GlcNAc(b1-2)Man(a1-3)[GlcNAc(b1-4)][GlcNAc(b1-2)Man(a1-6)]Man(b1-4)GlcNAc(b1-4)GlcNAc
# Summary of the method: as §1
# [19] = biological target: GlcNAc(b1-2)Man(a1-3)[GlcNAc(b1-4)][GlcNAc(b1-2)Man(a1-6)]Man(b1-4)GlcNAc(b1-4)[Fuc(a1-6)]GlcNAc
# Summary of the method: as §1
# [20] = biological target: GlcNAc(b1-2)[GlcNAc(b1-4)]Man(a1-3)[GlcNAc(b1-2)Man(a1-6)]Man(b1-4)GlcNAc(b1-4)GlcNAc
# Summary of the method: as §1
# [21] = biological target: GlcNAc(b1-2)[GlcNAc(b1-4)]Man(a1-3)[GlcNAc(b1-4)][GlcNAc(b1-2)Man(a1-6)]Man(b1-4)GlcNAc(b1-4)GlcNAc
# Summary of the method: as §1
# [22] = biological target: GlcNAc(b1-2)[GlcNAc(b1-4)]Man(a1-3)[GlcNAc(b1-4)][GlcNAc(b1-2)[GlcNAc(b1-6)]Man(a1-6)]Man(b1-4)GlcNAc(b1-4)GlcNAc
# Summary of the method: as §1
# [23] = biological target: GlcNAc(b1-2)[GlcNAc(b1-4)]Man(a1-3)[GlcNAc(b1-4)][GlcNAc(b1-2)[GlcNAc(b1-6)]Man(a1-6)]Man(b1-4)GlcNAc(b1-4)[Fuc(a1-6)]GlcNAc
# Summary of the method: as §1
# [24] = biological target: GlcNAc(b1-2)[GlcNAc(b1-6)]Man(a1-6)[GlcNAc(b1-2)Man(a1-3)]Man(b1-4)GlcNAc(b1-4)GlcNAc
# Summary of the method: as §1
# [25] = biological target: GlcNAc(b1-2)[GlcNAc(b1-6)]Man(a1-6)[GlcNAc(b1-2)Man(a1-3)]Man(b1-4)GlcNAc(b1-4)[Fuc(a1-6)]GlcNAc
# Summary of the method: as §1
# [26] = biological target: GlcNAc(b1-2)[GlcNAc(b1-6)]Man(a1-6)[GlcNAc(b1-4)][GlcNAc(b1-2)Man(a1-3)]Man(b1-4)GlcNAc(b1-4)GlcNAc
# Summary of the method: as §1
# GlcNAc(b1-3)Fuc = biological target: GlcNAc(b1-3)Fuc
# Summary of the method: as §1
# GlcNAc(b1-3)Gal = biological target: GlcNAc(b1-3)Gal
# Summary of the method: as §1
binder,measurement,setting,value
"RsaA-N-term (Caulobacter crescentus), P35828 (protein) MAYTTAQLVTAYTNANLGKAPDAATTLTLDAYATQTQTGGLSDAAALTNTLKLVNSTTAVAIQTYQFFTGVAPSAAGLDFLVDSTTNTNDLNDAYYSKFAQENRFINFSINLATGAGAGATAFAAAYTGVSYAQTVATAYDKIIGNAVATAAGVDVAAAVAFLSRQANIDYLTAFVRANTPFTAAADIDLAVKAALIGTILNAATVSGIGGYATATAAMINDLSDGALSTDNAAGVNLFTAYPSSGVSGSTLSLTTGTDTLTGTANNDTFVAGEVAGDGSGWSHPQFEKGG",glycan array binding signal (z-score),GalNAc3S(b1-4)GlcNAc3S,0.081
same,glycan array binding signal (z-score),[1],-0.773
same,glycan array binding signal (z-score),GalNAc4S6S(b1-4)GlcNAc,-0.121
same,glycan array binding signal (z-score),GalNAc6S(b1-4)GlcNAc,0.854
same,glycan array binding signal (z-score),Glc(a1-4)Glc,-0.053
same,glycan array binding signal (z-score),[2],-1.59
same,glycan array binding signal (z-score),Glc(a1-6)Glc(a1-6)Glc,0.894
same,glycan array binding signal (z-score),[3],-1.03
same,glycan array binding signal (z-score),Glc(b1-4)Glc,-0.512
same,glycan array binding signal (z-score),Glc(b1-6)Glc,-0.435
same,glycan array binding signal (z-score),GlcA(b1-3)Gal,-1.22
same,glycan array binding signal (z-score),GlcA(b1-3)GlcNAc,-0.246
same,glycan array binding signal (z-score),GlcA(b1-6)Gal,-0.029
same,glycan array binding signal (z-score),[4],-0.383
same,glycan array binding signal (z-score),[5],-1.01
same,glycan array binding signal (z-score),[6],0.371
same,glycan array binding signal (z-score),[7],0.008
same,glycan array binding signal (z-score),[8],-0.739
same,glycan array binding signal (z-score),[9],-0.154
same,glycan array binding signal (z-score),[10],-0.491
same,glycan array binding signal (z-score),[11],0.269
same,glycan array binding signal (z-score),[12],-0.211
same,glycan array binding signal (z-score),[13],-0.566
same,glycan array binding signal (z-score),[14],0.087
same,glycan array binding signal (z-score),[15],-1.33
same,glycan array binding signal (z-score),[16],-0.715
same,glycan array binding signal (z-score),[17],0.396
same,glycan array binding signal (z-score),[18],-0.518
same,glycan array binding signal (z-score),[19],-1.03
same,glycan array binding signal (z-score),[20],-0.266
same,glycan array binding signal (z-score),[21],1.97
same,glycan array binding signal (z-score),[22],-1.75
same,glycan array binding signal (z-score),[23],0.317
same,glycan array binding signal (z-score),[24],-0.552
same,glycan array binding signal (z-score),[25],0.799
same,glycan array binding signal (z-score),[26],-0.652
same,glycan array binding signal (z-score),GlcNAc(b1-3)Fuc,-0.041
same,glycan array binding signal (z-score),GlcNAc(b1-3)Gal,-0.705

# Exported as tab-separated lines: part of the list above.
binder	measurement	setting	value
RsaA-N-term (Caulobacter crescentus), P35828 (protein) MAYTTAQLVTAYTNANLGKAPDAATTLTLDAYATQTQTGGLSDAAALTNTLKLVNSTTAVAIQTYQFFTGVAPSAAGLDFLVDSTTNTNDLNDAYYSKFAQENRFINFSINLATGAGAGATAFAAAYTGVSYAQTVATAYDKIIGNAVATAAGVDVAAAVAFLSRQANIDYLTAFVRANTPFTAAADIDLAVKAALIGTILNAATVSGIGGYATATAAMINDLSDGALSTDNAAGVNLFTAYPSSGVSGSTLSLTTGTDTLTGTANNDTFVAGEVAGDGSGWSHPQFEKGG	glycan array binding signal (z-score)	GalNAc4S6S(b1-4)GlcNAc	-0.121
same	glycan array binding signal (z-score)	[4]	-0.383
same	glycan array binding signal (z-score)	GlcNAc(b1-3)Fuc	-0.041
